These are yes or no findings as the source states them, for the method shown. Some binding calls cover weakened binding; strength is not graded here. For part of these data: Sequences can lack the tags named with a protein.
How the values were obtained:
[1] = biological target: mouse Mcm4/6/7 complex (His6-Mcm4, Mcm6, Mcm7-Flag) (mouse) (UniProt P49717+P97311+Q61881); assay: native gel or EMSA; gel shift on 32P-labelled single-stranded oligonucleotide (132 mer or 37mer-dT50), 0.5 mM ATP-γ-S, 30°C 30 min; 5% native polyacrylamide gels (1x TBE, or 0.5x TBE with 5% glycerol); complexes of the two proteins on DNA; both purified
[2] = biological target: T1, mouse Mcm5-His6-Flag (mouse) (UniProt P49718); assay: co-purification; six mouse Mcm subunits co-expressed in insect cells; nickel-agarose, anti-Flag M2 antibody agarose (Flag on Mcm5), glycerol gradient sedimentation
T1 sequence: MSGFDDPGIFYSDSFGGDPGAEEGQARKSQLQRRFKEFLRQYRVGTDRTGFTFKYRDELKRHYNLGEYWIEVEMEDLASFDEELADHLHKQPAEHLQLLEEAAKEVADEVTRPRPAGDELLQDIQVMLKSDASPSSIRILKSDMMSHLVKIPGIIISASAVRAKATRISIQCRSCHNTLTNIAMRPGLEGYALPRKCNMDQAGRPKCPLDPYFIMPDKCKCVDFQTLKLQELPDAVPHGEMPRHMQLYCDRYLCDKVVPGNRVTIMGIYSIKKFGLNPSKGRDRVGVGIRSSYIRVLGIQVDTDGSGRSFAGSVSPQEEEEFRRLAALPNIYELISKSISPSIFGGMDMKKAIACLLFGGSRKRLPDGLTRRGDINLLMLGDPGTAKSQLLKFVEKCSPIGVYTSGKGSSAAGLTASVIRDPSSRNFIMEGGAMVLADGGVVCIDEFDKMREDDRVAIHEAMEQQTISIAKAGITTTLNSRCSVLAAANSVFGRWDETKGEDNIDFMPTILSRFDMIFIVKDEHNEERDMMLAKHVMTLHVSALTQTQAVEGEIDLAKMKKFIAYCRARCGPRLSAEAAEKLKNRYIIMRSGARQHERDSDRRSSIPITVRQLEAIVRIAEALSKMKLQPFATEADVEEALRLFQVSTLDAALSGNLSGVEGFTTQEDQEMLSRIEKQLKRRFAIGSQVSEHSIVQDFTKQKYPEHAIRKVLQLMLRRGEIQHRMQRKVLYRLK

The chains behind the UniProt entries cited, without tags or fusion partners. Where a name states a change or a piece, a line headed by the entry shows the natural chain unless it says otherwise.
UniProt P49717: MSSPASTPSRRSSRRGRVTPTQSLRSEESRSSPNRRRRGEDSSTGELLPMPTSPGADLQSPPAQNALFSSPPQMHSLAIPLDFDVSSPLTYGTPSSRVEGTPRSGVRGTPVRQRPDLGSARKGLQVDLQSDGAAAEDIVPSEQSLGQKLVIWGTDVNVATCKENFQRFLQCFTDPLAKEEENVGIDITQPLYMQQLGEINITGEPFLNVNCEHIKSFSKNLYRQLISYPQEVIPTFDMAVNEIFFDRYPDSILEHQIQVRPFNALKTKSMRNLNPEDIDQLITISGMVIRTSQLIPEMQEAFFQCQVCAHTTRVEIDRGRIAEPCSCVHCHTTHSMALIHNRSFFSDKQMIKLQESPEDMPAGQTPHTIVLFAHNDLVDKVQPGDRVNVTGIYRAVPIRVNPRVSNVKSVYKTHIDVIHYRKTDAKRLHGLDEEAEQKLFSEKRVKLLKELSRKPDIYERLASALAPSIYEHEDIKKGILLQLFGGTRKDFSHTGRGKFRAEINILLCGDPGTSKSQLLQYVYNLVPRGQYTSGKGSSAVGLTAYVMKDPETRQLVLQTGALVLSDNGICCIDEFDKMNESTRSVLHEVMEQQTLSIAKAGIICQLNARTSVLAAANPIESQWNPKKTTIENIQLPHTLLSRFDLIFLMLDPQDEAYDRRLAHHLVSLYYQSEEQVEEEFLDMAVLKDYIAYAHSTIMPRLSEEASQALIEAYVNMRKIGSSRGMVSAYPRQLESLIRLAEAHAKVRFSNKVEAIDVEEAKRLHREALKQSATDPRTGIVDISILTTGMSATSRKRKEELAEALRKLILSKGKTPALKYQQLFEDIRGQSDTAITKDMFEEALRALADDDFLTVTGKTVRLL
UniProt P97311: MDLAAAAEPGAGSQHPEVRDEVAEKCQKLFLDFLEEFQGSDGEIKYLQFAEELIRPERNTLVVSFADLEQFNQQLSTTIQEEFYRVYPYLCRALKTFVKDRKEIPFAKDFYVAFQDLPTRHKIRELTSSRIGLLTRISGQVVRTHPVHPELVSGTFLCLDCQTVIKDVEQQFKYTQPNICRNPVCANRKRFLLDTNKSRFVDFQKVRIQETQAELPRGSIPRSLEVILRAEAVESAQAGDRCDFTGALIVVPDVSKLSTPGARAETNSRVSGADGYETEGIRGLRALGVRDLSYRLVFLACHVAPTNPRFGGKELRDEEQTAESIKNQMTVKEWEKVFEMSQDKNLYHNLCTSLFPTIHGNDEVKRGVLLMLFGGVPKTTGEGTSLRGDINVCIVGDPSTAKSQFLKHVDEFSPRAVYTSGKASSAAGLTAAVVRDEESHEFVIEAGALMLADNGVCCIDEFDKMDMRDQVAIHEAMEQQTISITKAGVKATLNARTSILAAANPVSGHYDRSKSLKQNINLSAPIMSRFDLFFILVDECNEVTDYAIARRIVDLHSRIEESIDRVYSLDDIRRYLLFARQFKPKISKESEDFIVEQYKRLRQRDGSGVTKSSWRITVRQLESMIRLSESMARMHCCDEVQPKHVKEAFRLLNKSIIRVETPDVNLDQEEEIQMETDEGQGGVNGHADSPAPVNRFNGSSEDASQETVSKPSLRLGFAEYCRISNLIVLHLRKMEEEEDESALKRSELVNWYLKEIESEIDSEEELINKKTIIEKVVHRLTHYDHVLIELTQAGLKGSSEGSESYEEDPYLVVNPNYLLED
UniProt Q61881: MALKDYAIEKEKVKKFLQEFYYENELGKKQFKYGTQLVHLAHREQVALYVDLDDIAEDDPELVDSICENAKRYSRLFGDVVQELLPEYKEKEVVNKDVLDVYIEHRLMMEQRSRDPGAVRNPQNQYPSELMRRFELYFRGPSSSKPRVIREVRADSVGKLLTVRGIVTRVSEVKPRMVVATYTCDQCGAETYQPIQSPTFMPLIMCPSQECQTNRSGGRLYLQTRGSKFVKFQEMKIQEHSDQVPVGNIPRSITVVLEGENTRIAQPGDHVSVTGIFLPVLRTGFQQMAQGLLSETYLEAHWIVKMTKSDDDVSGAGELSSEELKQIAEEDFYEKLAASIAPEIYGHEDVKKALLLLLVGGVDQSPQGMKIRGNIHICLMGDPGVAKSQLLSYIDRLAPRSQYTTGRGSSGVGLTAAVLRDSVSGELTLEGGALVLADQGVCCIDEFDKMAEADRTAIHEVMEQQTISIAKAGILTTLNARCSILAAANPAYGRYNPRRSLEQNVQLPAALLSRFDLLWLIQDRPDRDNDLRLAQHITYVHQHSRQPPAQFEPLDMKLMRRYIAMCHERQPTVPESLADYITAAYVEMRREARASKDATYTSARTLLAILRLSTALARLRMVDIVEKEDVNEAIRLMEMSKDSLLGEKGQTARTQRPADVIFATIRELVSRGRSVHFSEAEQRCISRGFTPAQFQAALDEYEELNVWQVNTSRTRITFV
UniProt Q9BRT9: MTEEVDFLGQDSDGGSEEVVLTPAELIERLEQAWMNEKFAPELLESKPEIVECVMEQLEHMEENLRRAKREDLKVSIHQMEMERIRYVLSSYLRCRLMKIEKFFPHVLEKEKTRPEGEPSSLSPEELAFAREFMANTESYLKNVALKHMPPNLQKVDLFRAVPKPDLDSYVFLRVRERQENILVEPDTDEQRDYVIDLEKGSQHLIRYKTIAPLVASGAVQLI
UniProt P97310: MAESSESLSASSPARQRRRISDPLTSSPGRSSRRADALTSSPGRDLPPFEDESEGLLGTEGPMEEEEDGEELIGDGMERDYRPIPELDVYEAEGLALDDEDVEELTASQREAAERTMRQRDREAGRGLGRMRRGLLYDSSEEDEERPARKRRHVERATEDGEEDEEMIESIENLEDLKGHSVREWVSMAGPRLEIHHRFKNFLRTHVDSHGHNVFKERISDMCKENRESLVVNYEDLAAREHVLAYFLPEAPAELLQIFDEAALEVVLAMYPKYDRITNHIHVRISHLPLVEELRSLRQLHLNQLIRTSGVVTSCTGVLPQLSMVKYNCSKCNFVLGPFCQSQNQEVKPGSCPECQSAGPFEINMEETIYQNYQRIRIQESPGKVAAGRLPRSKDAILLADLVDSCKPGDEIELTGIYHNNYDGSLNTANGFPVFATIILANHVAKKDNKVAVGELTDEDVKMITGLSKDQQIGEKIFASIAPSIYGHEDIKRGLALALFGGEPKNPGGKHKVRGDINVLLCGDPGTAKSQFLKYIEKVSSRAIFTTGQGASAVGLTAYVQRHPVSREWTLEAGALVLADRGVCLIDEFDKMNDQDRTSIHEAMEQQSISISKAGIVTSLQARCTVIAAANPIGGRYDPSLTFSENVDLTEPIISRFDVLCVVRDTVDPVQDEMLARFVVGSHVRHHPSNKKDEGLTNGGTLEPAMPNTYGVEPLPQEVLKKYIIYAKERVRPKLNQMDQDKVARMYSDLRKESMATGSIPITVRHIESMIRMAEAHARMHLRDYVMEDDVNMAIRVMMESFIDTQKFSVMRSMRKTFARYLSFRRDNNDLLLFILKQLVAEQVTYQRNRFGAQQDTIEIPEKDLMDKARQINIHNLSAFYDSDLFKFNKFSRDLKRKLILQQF

Substance | binding [1] | binding [2]
human GINS complex (Sld5, Psf1, Psf2, Psf3) (from UniProt Q9BRT9 1-223; Q14691 1-196; Q9Y248 1-185; Q9BRX5 1-216) | no binding (tested: 30 to 500 ng of GINS (25 nM to 400 nM)) | –
mouse Mcm2 (from UniProt P97310 1-904) | – | binds
mouse Mcm7-His6 (from UniProt Q61881 1-719) | – | binds

Source: publication PMC3748026
